According to the supplement of paper PMC3334620:
The full ranking holds about 33,000 sequences; the median of “E-score (-0.5 to 0.5)” is about -0.0034, and the highest 2% start at about 0.25. The list shows a part of the results.

biological target: T1, Yap3 (UniProt P38749); assay: PBM E-score (8-mer binding enrichment) (E-score (-0.5 to 0.5)); higher = stronger / more preferred TF binding; conditions: protein concentration: 100 nM; construct: GST-full length
T1 sequence: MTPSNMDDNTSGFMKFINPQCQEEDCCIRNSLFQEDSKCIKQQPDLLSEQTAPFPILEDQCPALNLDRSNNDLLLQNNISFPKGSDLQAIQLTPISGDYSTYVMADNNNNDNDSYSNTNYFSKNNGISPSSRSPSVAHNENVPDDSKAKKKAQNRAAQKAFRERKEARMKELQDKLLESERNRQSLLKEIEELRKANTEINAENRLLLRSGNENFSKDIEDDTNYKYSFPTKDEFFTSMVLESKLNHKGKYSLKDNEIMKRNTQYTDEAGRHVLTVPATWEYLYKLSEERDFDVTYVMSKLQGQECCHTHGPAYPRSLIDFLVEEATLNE
In short: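 Universal all-10-mer Agilent arrays, double-stranded by primer extension on fresh or once-stripped slides, were probed with about 100-200 nM GST-tagged yeast transcription factors made by PURExpress. Fluorescent anti-GST detected bound protein, and masliner normalised the scans. E-scores from the Universal PBM Analysis Suite were given to each ungapped eight-base word pooled with its reverse complement.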

Sequence	PBM E-score
AATTAATA	0.353
AAGCTTCG	-0.0846
ACCCGGTC	-0.134
ACTTATTC	0.162
TCGTGCAA	0.175
CGCATGAC	0.0695
AGTGTCTG	-0.0157
ACTGATGC	-0.103
CCTCTCTC	-0.184
CATAATCA	0.271
GAGGGTGC	-0.295
AAGTTGAT	0.0477
CCGGCTTC	-0.119
TGCGAAAA	0.0554
CCTCACGA	-0.0751
AGCAAAGC	0.0118
TAACATTA	0.166
ACCTACCC	-0.296
CCAATATC	0.129
ATCTCACA	-0.014
GTCCGGGA	0.0564
ATAATTCC	0.163
CATCCAAA	0.113
CGTGCGAC	-0.227
TAGGACCA	-0.0539

Sequence	PBM E-score
CCCCGTAG	-0.135
CTCAATGA	-0.0717
CACTTCGG	0.106
GGTTCTCA	-0.00233
ATTATATG	0.221
AGTGGCAG	0.0242
AAATCGAT	0.0774
ACTTTAGG	-0.214
ACCTAGAG	-0.122
GTCGGGCA	-0.0435
AGTAGTTC	0.0884
AGGGTTGC	-0.0559
CAAGCGCC	-0.22
CACAGGAC	-0.122
ACCCGTTG	-0.24
ACCGGAAC	0.0841
AGACGTTG	-0.0805
GGCGCTAA	-0.0117
CCTCTCAG	-0.334
GACTCCGC	-0.147
CTTTGCAA	0.0296
AAATGTTG	-0.124
TACATGGA	-0.0383
AGAATGCT	0.0575
GAAAAGTC	-0.0826

Sequence	PBM E-score
AAGAGAGG	-0.163
GAGCCTAC	0.0122
ATGAAACG	0.19
CCCCGTAA	0.0063
ATTATTGA	0.0643
CCAGCCAC	-0.0712
GGAATAAC	0.13
ATGTGGAA	0.133
CCTCTTAG	0.213
CTGGTTAA	0.0965
TAGGGATA	0.0595
GAAGCCGA	-0.0633
AGACGCCG	-0.0447
ACTTCAGA	-0.0393
TAGCGCCA	0.00697
GACAACCA	0.145
CGGTCAAC	0.101
CAACTGAG	0.0815
AATACACA	0.131
CCCTCCGC	-0.249
CGGCCCAC	-0.21
GGCATCGA	-0.125
AGTAATTA	0.307
CCTCCTTA	-0.186
AGACGAGG	-0.208

Quoted from above (7 entries):
Sequence	PBM E-score
GGAATAAC	0.13
ATGTGGAA	0.133
CCTCTTAG	0.213
CTGGTTAA	0.0965
TAGGGATA	0.0595
GAAGCCGA	-0.0633
AGACGCCG	-0.0447

Carrying on.

Sequence	PBM E-score
CTATCCCA	-0.02
ACCTATGG	-0.00983
GAGAAACC	0.0456
AACCGGTG	-0.113
ACGTGTGA	0.0975
ATCGCGTA	0.193
TAAACGTA	0.161
AACTCTTC	-0.0557
ATAACGCC	0.0798
ACTGTTCG	-0.00589
TAGTTTGA	0.141
CTCGTACA	0.024
CACTCGCG	0.0756
CGGGAATC	-0.0921
GCTGGGCC	-0.325
TATTCACA	0.27
AGCAAGCA	-0.198
AACTGTGT	0.171
GCTTGACA	0.0205
GGTTACCA	0.187
TCCATGAA	-0.0172
CGAGCAAC	-0.0655
ACGGCCAT	-0.195
GCCCCCGC	-0.369
GACGCTGA	-0.0739

Sequence	PBM E-score
CGGCCAAA	-0.117
GTCGATTA	0.093
TCACGTAA	0.359
CTGTTAAG	-0.044
ATTGTTAA	0.17
CACCGCTA	-0.11
CCTGTTAA	-0.0168
ATAGAACA	0.14
AGAGTGTA	-0.109
AAAGGTCT	-0.0778
ACTAAGGC	-0.0835
CCGTGTTA	0.0372
ACCTTTAG	-0.103
ATGTACTA	0.104
CCAATCAG	-0.251
AGCGGCAG	-0.176
CGTCACTA	0.143
CTGGTCGC	-0.0563
CGTCGGGA	-0.0475
ATTGGCAA	0.188
GTAGCGGA	-0.0099
TAGAGGAA	-0.144
AAAGCGCT	0.182
ATCACGCA	-0.0606
ACGCGGAT	0.107

Sequence	PBM E-score
ATTTCCCG	0.231
GGCTGAGA	-0.00882
AAAAACAA	0.28
CGTCCTCA	-0.0347
ACCCCCTC	-0.404
CCATGGTC	-0.151
GACAACTC	0.0164
ATGGCGAA	0.204
ATGCAGAG	-0.234
ATATGGAG	0.264
GATCCCGA	-0.0358
CCCCCGGC	-0.413
CACGGCTG	-0.277
GTCCATCA	-0.0672
AGGTCCCG	-0.114
GTAAGGCA	0.0101
CGCACCAA	-0.106
ACGAATTC	0.0442
GGGATCGA	-0.124
ACCGTACC	-0.0736
GTACCGAA	0.037
AGCTGGGG	-0.214
CAGCCCCC	-0.384
CTGGGAGA	-0.155
CTGCATCA	0.0347

Sequence	PBM E-score
CCGCTCAA	-0.0107
AGACACTG	-0.00923
GCCTCCGA	-0.15
ATCAGCGC	0.0141
ATATACAC	0.171
AACAACGG	0.104
AAAGGGGT	-0.163
CCTACTTC	-0.0676
GATCGGGA	-0.204
CTAAATAG	0.135
AGTCAATG	-0.0836
CGTAGTAC	0.0811
AGGGGAAG	-0.2
CCTGTGTC	-0.124
ACCAGCCG	-0.0862
ACTTGAAT	0.105
CGACCTCC	-0.111
CGTAGTCA	-0.0652
TACAGAAA	0.262
CAGGTGGC	-0.173
ATAGTTGC	0.224
CCTCAGTA	-0.129
